Data reported in article PMC8641933.

Amino acid sequences for entries named in this document (tags omitted).
UniProt Q92793: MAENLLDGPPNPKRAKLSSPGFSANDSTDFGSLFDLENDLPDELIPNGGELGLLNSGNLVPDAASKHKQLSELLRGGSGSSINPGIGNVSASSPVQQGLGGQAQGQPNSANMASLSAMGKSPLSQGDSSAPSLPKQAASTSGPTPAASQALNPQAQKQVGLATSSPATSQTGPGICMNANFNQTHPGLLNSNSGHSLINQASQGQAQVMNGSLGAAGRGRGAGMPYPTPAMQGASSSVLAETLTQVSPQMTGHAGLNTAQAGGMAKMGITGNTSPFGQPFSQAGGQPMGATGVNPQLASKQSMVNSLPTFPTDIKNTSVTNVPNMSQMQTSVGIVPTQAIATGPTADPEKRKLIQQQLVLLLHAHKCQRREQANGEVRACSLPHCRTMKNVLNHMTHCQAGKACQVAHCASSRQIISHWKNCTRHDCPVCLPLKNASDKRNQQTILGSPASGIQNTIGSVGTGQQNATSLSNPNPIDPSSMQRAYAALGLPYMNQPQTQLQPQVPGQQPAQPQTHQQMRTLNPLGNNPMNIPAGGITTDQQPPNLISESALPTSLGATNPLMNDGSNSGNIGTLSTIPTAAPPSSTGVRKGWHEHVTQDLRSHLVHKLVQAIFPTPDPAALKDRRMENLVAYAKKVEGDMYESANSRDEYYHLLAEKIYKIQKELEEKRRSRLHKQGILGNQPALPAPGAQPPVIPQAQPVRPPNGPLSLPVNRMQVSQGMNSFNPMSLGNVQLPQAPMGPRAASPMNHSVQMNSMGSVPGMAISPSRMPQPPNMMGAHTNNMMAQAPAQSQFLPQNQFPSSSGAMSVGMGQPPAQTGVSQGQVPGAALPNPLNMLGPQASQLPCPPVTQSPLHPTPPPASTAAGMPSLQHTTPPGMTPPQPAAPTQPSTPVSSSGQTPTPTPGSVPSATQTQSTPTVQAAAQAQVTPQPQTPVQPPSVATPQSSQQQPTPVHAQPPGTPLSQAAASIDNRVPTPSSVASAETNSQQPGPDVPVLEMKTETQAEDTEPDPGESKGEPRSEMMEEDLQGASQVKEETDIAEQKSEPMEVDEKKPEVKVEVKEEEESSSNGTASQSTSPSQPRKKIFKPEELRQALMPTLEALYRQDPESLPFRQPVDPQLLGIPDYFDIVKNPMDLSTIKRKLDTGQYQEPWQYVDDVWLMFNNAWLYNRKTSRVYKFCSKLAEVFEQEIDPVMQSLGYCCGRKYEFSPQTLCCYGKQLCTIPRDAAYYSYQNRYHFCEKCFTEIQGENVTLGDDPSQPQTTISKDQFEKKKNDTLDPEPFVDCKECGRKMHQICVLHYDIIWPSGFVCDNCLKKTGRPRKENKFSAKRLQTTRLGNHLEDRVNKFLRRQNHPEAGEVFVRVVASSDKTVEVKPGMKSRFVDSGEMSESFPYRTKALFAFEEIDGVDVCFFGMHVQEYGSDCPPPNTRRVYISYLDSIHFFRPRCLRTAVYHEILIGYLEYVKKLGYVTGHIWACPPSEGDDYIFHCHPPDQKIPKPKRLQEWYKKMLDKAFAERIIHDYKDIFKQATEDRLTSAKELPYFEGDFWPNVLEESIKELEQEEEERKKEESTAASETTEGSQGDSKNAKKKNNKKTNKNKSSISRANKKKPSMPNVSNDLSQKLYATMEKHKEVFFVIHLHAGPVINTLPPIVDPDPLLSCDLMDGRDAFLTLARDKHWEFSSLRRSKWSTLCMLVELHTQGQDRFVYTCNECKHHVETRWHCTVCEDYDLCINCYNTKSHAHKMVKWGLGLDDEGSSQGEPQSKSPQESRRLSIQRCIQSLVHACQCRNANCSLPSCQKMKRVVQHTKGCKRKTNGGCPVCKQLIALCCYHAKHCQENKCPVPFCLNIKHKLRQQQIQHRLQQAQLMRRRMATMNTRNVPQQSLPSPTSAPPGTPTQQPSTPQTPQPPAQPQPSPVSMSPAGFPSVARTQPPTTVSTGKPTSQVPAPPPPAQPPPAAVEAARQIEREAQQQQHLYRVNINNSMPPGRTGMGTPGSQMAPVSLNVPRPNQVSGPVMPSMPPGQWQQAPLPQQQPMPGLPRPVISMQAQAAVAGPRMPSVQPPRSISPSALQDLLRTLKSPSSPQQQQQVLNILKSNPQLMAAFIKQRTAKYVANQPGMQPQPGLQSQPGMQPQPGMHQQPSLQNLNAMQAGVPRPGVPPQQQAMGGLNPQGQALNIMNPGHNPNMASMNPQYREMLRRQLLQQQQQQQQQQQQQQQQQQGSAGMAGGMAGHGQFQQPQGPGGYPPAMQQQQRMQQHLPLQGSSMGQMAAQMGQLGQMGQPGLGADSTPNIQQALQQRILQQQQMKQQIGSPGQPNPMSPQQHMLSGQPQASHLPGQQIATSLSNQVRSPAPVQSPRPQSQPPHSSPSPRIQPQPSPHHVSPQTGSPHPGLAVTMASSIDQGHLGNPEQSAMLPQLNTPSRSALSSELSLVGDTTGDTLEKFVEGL
UniProt P67809: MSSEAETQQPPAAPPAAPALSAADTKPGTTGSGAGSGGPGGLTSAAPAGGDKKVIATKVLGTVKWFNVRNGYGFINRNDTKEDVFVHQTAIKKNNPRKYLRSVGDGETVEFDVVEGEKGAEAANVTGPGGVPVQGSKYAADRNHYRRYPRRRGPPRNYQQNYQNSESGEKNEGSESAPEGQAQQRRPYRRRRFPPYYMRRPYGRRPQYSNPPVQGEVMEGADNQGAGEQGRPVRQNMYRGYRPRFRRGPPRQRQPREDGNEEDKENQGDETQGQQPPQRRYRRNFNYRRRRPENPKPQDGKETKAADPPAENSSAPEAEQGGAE

Target: T1, wild-type FOXN1 (human), FLAG- or myc-tagged (human) (UniProt O15353)
T1 sequence: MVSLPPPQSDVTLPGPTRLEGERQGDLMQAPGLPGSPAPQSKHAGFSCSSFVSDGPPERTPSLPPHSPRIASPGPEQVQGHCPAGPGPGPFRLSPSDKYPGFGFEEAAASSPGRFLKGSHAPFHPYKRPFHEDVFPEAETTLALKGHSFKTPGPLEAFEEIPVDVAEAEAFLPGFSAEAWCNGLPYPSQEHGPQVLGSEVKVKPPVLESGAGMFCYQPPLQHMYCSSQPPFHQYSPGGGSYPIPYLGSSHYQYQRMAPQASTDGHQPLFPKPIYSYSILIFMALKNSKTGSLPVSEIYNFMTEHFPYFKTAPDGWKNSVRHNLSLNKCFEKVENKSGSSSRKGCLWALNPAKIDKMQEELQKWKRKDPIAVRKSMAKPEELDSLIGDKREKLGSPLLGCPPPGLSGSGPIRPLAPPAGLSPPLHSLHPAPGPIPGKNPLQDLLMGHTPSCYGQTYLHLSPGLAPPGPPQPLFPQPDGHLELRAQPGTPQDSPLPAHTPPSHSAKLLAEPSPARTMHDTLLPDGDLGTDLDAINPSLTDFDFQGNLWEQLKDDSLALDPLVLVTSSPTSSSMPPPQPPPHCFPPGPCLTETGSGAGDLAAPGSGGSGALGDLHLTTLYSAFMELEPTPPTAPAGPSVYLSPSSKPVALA
Assay: affinity purification with mass spectrometry; Anti-FLAG immunoprecipitation from nuclear lysates of 4D6 cells expressing wild-type-FLAG or Δ550-FLAG FOXN1. Beads treated with 1 mM DSSO, elution with 3x FLAG peptide, LC-MS/MS with label-free quantitation, three replicates each.

binding	Substance
binds	Creb binding protein (CBP) (from UniProt Q92793 1-2442)
binds	Y box-binding protein 1 (YBX1) (from UniProt P67809 1-324)

No constants are given. Whether binding was seen depends on the method and setting. Binding seen in cells or lysates may run through a third protein. These calls come from enrichment with a bait or labelling near it, and not all partners need be listed. Tags and fused reporters may be left off the sequences shown.
